About 3,700 (7%) of roughly 53,000 sequences were called active.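 Rule for the calls: active = gene knockdowns whose robust z-score for IL-1 alpha signal is at least 2 or at most -2, so actives lie on both sides; inactive = the rest.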 The list shows a part of the results.

The experiment can be described thus: Components of the Cytosolic LPS Sensing Pathway: Gene Identification via Genome-wide siRNA Screen. To be noted: RAW264.7 macrophages, IL-1a HTRF, actives lie on both sides, screened at 100 nM (by protocol), cells primed 5 h with Pam3CSK4 first. The text has this:
Non-canonical inflammasome activation by cytosolic LPS is a critical component of the host response to Gram-negative bacterial infection, however we lack a comprehensive understanding of the cellular processes that control this pathway. Here we describe a genome-wide siRNA screen to identify genes regulating the mouse macrophage IL-1 alpha response to cytosolic LPS.
RAW264.7 cells were maintained in complete DMEM media, comprising DMEM with 4.5 g/L glucose, 10% FBS (Gemini Bio-Products, West Sacramento, CA), 2 mM Glutamine (Lonza) and 20 mM HEPES (Lonza), hereafter complete DMEM.
The RNAi screen was conducted in 384-well format using the Ambion Silencer Mouse Genome siRNA Library (#4391425), which consists of three unique, nonoverlapping, nonpooled siRNAs for each of 17,000 gene targets. siRNA reagents ([…]) were stamped into 384-well white flat-bottom microplates (Corning, 3570) using a Velocity11 VPrep liquid handling system (Agilent) integrated into a BioCel robotic platform (Agilent) in columns 1-22, leaving columns 23-24 empty for negative (Ambion, Negative control #1) and positive (mouse Casp4) controls, respectively. The median value of each plate's negative control column was used to normalize sample wells, and the positive control was used to assess transfection efficiency and assay performance.
Lipofectamine RNAiMAX Transfection Reagent ([…]; Invitrogen) was added in […] serum-free, antibiotic-free media to plate wells using a Thermo Scientific Matrix WellMate and Microplate Stacker. Plates were incubated for 45 min at room temperature to allow for the sufficient formation of siRNA-lipid complexes. Cells were seeded at a density of 1x10^4 cells per well in 20 microL media containing 20% (vol/vol) FBS without antibiotics. The final concentration of siRNA in each well was 100 nM. Cells were cultured for 48h at 37 degrees C in 5% CO2 before addition of […] of TLR ligand Pam3CSK4 for 5 hours. The medium was then removed, replaced with […] growth media and cell were transfected with […] of LipidA and TransIT-TKO (Mirus) for 24 hour. At the end of the LipidA treatment, […] of supernatant was transferred to a 384 Greiner Bio-one non-binding low volume plate and […] of IL-1a HTRF reagent (Cisbio, 62MIL1APEH) was added and incubated at room temperature overnight. The plates were read on an EnVision plate reader (PerkinElmer). Cell viability was measured by adding 20ul Cell Titer Glo to the original plate and running a luminescence read on the EnVision. The quantified IL-1a signal for each siRNA gene-targeted well was divided by the median of the negative control wells and multiplied by 100 to achieve a negative control normalized value for each well/siRNA. This normalized value was then used to generate a robust z-score by first taking the log of each value and then by subtracting the median and dividing by the […].
In general terms: In TR-FRET formats the signal depends on donor and acceptor labels being close together.
Regarding GCCGCUGUCAAUAAAUGACTT against Phb, the z-score was inactive: -0.0384.

As for GGUAGAAAAGCUUCUGAAATT against Ap1g1, the z-score is inactive: 0.349.

Take GGAUUAAUCUGUGGAACUUTT against Ppp2r2b: the z-score was inactive: -0.111.

As for GGGAGGAAAUUAAAUUUCATT against Hif1an, the z-score was inactive: -0.223.

For the sequence GCCUCAGAAUACCAGCUCATT against Gnat1, the z-score was inactive: -0.186.

As to CCUCAAAAAUGGGUACGGUTT against Srsf6, the z-score is inactive: 1.27.

Regarding GGACAUUUUAAUGUGCUCATT against Erlin2, the z-score is inactive: 0.0602.

On to GGAUAGCUAUGAACGUAGCTT against Lrrc14b, for which the z-score was inactive: 1.05.

For the sequence CCUCCUUUUUUCUCUGUCUTT against Ugt1a9, the z-score is active: -2.79.

For GGAGUGUAGUAAAUGUACCTT against Ppp1r13b, the z-score was active: 3.97.

For CGUGAAAAUAGAAAGGUAATT against Rfk, the z-score is inactive: 0.0645.

As for GGGAGAAUGUUUUUCUUACTT against Vsig8, the z-score is inactive: -0.956.

Regarding CCACUAACAGCUCAUGUCATT against Rpe65, the z-score is inactive: -0.152.

Take GGAAGCUGCUUUUCUAAAUTT against Il7: the z-score is active: 2.92.

Take GGGAAUUUUGAAAAGGCUGTT against Nphp3: the z-score is active: 2.12.

In the case of GCUGACUGCUAAAAUCCAGTT against Spc25, the z-score was inactive: -0.0782.

As to GCUAGGUGAUCAGAGAACUTT against Nsl1, the z-score was inactive: 0.222.

As for GGAGCUUGACAUUCUGGAATT against Tmco4, the z-score is inactive: 0.766.

For the sequence GGCUAGGAGAGUCUCCCUUTT against Rfx1, the z-score is inactive: -0.556.

For GCAACUCUACUUGUCAAUUTT against Lypd8, the z-score is inactive: 0.894.

Regarding GGUGGACAAGACAAGCAUCTT against Ilvbl, the z-score is inactive: -0.264.

Regarding GGAAAACAAACCACAGCCATT against Tpbpa, the z-score is active: -2.66.

Turning to GGAGAAAAUUGUCAAGAAGTT against Ift122, the z-score was inactive: -0.824.

For GGAACAUUGGCAUCACGACTT against Acy1, the z-score was inactive: 0.901.

For GCCCAAAGGUUCGUAAGGUTT against Rpl7, the z-score is inactive: 1.01.

Take CCAGUUCUUAACAUUGUGUTT against Syap1: the z-score was inactive: -1.13.

As to GCUAGCAACAUCAUUGAUGTT against Lamtor1, the z-score was inactive: -0.747.

In the case of GGAGUGUGAAGAGAUACAGTT against C9, the z-score was inactive: 0.493.

Take GGAUUCUCCAGACACCUUGTT against Styxl1: the z-score was inactive: -0.704.

For the sequence GGGUAACAGAUACUGUUAUTT against Orai2, the z-score is inactive: 0.554.

For GGACAAGAAAAAAAACCUGTT against Mrvi1, the z-score is inactive: -0.113.

Take GGAAGACAAGGUUUUAGCUTT against Ulbp1: the z-score was inactive: 1.92.

Turning to GGUCAAACAGGAAGACAGATT against Ubc, the z-score was inactive: 0.645.

Regarding GGGUCUCAGCAGUGCAAACTT against Txnip, the z-score is inactive: -0.486.

With GGUCUUAACUGUGAACAACTT against Dner, the z-score is inactive: 0.492.

Consider GGUUAUUGGCACUUUUAGATT against Ect2, for which the z-score is inactive: 0.0504.

Regarding GGUACUAAACACCAACUCCTT against Cd300a, the z-score was inactive: 0.694.

As to CCAGCUAGUGAUGUCAAAATT against Bri3bp, the z-score is inactive: -0.0406.

For the sequence UGAGGAGAGUUUCCGAGUGTT against H2-Q6, the z-score was inactive: -0.0985.

For GGGUGCAUAUGUUUGAAGCTT against Copb2, the z-score is active: -2.5.

Consider GGAAAAAAAGGACAUUUCATT against Osmr, for which the z-score was inactive: 1.54.

For the sequence GGACGUGGUGAAGUUUUAUTT against Folr2, the z-score is inactive: 1.59.

On to GGGUGGUGGCAUUAAACUUTT against Stk36, for which the z-score is inactive: 1.75.

Turning to GGGCUAUGUGCUCUUUUGUTT against S1pr4, the z-score was inactive: 0.688.

Take GGGUAGAAUGUGUGUGUCUTT against Abhd15: the z-score is active: -2.52.

GCCAGUAACCAGAAAAUUGTT against Sycp3: the z-score is active: -2.01.

In the case of GGACAAAGAGGAAUGGAUATT against Tank, the z-score was inactive: -1.19.

Consider GGCUAUAAAAAGAAGUACCTT against Pdgfrb, for which the z-score is inactive: 1.63.

CCAAUCUGCACCCUAUGUCTT against Cs: the z-score was inactive: -1.11.

As for CCAAGAUUAACCAUAACACTT against Mrpl50, the z-score is inactive: 0.017.

Take GCAACUCUUAUUUGGAUGCTT against Dbpht1: the z-score is inactive: 0.489.

As to GGAUGGUUGUGAGGAUUACTT against Paip1, the z-score is inactive: 0.483.

For GGCAAAAUAACUGACUUCATT against Rps4x, the z-score was inactive: 0.315.

Take GGAAGAGGCCAGCUAUAACTT against Dcaf1: the z-score is active: -2.51.

For GGAUGCUAGACAAGAAUCCTT against Camkk1, the z-score is inactive: -0.654.

On to GCUUACCAAAGGCUAUUUGTT against Anxa13, for which the z-score is inactive: -0.108.

For GGAAAUGAUCCAUCAACUCTT against Rxfp1, the z-score was inactive: 0.541.

GCUCAAAUCUAAUAAGGACTT against Cdh3: the z-score is inactive: -0.053.

Consider GGUGGAGACCCUGAUAAGUTT against Anks4b, for which the z-score is inactive: -0.393.

In the case of GGAACAACCUUAUACUACCTT against Rcl1, the z-score is inactive: 0.903.

In the case of GGACACACAUGGAAACUGGTT against Nr2f6, the z-score was inactive: -0.965.

As for GGCCGUACUAGAUUUUCUUTT against Olfr695, the z-score was inactive: 1.35.

On to GGUUUUCCAGAGAAACCACTT against Rhox7a, for which the z-score was inactive: 0.505.

Regarding CGACAGAGGAAAACAUAAATT against St13, the z-score was active: -2.55.

Consider GCAAGAAGCCUGCCAAUAUTT against Etd, for which the z-score was active: 2.05.

For the sequence GGGCAUGGACAAAAUUCUCTT against Cct2, the z-score was inactive: 1.68.

Take GCUUUCUUGAGAUUACUCATT against Zcchc17: the z-score was inactive: -1.53.

As to GCCCUUACGUGGUAAAACCTT against Fndc3c1, the z-score is inactive: 0.0746.

As for GGCAAUAGCUACACCUUCATT against Csf1r, the z-score was inactive: 1.9.

For GCAGGUGAAUCAGAUUGCUTT against LOC434448, the z-score is inactive: -1.2.

As to GGACAAGAAGGAAAAGAAATT against Brd4, the z-score was active: -3.25.

Regarding CCACAAUGACUGGAUUAAGTT against Atp6v1c1, the z-score is inactive: 0.196.

As for GGACACUUACGUCAUCGAGTT against Rtca, the z-score is inactive: -0.814.

Consider GCUGUUGAAACGACACUCGTT against Aars2, for which the z-score is inactive: -0.0434.

As to GGUCGUGUACAAGUACAUATT against Mrps24, the z-score is active: 2.24.

As for GCCAAUACCAGCUUGACAUTT against LOC434448, the z-score is inactive: 0.578.

On to GGAGAUUCUGAUGAAGAAGTT against Isca1, for which the z-score was inactive: 0.096.

Consider GGAAGAGUGACUUGUGCAATT against Slc28a2, for which the z-score is inactive: 0.0125.

With CCUCCUCUCUGUUUUCUACTT against Olfr699, the z-score was inactive: -1.16.

With GGAUGUUAUUCGCCACGCGTT against Zfp335, the z-score is inactive: -0.134.

As for CCUACACAAAAUCACUUUGTT against Spata1, the z-score was inactive: -0.402.

On to GGUGGGAACCUGUACUCUATT against Pld2, for which the z-score is inactive: -1.54.

Regarding GCUCCGUGUUGACUCAAAATT against Foxg1, the z-score is active: 2.46.

For the sequence GGCUCUUAUCAAGAAAUCUTT against Elp5, the z-score was inactive: -1.61.

GCGAAUUGGAACAGCUGACTT against Sh3glb1: the z-score is inactive: -0.982.

On to GGUAGAAAAAACACAAACGTT against Ppp2r3c, for which the z-score is inactive: 1.43.

On to GGCAUUGAAUUACUUACAUTT against Slk, for which the z-score is active: 2.46.

Consider GGAUCUCUAACUUCACCAGTT against Katnbl1, for which the z-score was inactive: 0.691.

In the case of GCCUGAGGAAUCGUGACAUTT against Olfr51, the z-score was inactive: -1.58.

With GGAGAUAAAUGUGUAGACCTT against Matn3, the z-score was inactive: 0.915.

Consider GCCACCAUGUGCAACAUACTT against Ifit2, for which the z-score was inactive: 0.145.

In the case of CGGAAGGAAGUGCCUAAACTT against Rcc2, the z-score is inactive: 0.668.

Consider “GGUCACACCCAUAAACUAATT against B630019K06Rik”, for which the z-score is inactive: -0.167.

In the case of GGAGACAUCAUCUGAAUAUTT against Hnmt, the z-score was inactive: -0.431.

Turning to CAACUCCGGAAGACCAGGATT against Kpna7, the z-score was inactive: -0.319.

For “GCCCAUGGGUACAUGCAAUTT against 1810065E05Rik”, the z-score is inactive: 0.328.

Turning to GCCGAUGUAUCUACUUUGCTT against Rnase6, the z-score was inactive: 0.323.

Take CGUGAAGGAAACUUUUCAGTT against Prmt9: the z-score was inactive: -1.45.

For the sequence GGUUCUCAGAGCCAGAAAUTT against Prl8a2, the z-score is inactive: -0.124.

Regarding GCAACAUCGUAUGUUAAUGTT against Slc9a4, the z-score was inactive: 0.0571.

GGCUAAUCACUAGAUUAGATT against Ldb2: the z-score was inactive: -0.397.

“GCGAACUAUUCAAAAGUUATT against 4921504E06Rik”: the z-score was inactive: 0.265.

In the case of GGUUGCUAUUAUUAUUGGATT against Fnbp4, the z-score is inactive: 0.678.

Turning to GGAGACAGAGAUCAUUGAATT against Ruvbl2, the z-score was inactive: -1.94.

On to GGAAAUUAUGACAUGCACCTT against Eya3, for which the z-score is inactive: -0.699.

Consider GGCUAUACUGUCAAUGUAUTT against Nsdhl, for which the z-score is inactive: -0.656.

GGUGCAGUCUUAGGGAGGUTT against Rps6kb1: the z-score was inactive: 1.03.

On to CGACUGCUUAAUGAUUCCCTT against Pfdn4, for which the z-score is inactive: -1.5.
